Values of other authors as cited in patent publication US20140147496A1, “COMPOSITION AND METHOD FOR FERTILITY THERAPY USING NUTRITIONAL SUPPLEMENTS” (FAIRHAVEN HEALTH, LLC, priority 2009, published 2014).
At least one structure is not confirmed: it was looked up by name or label, or the drawing left a doubt.

System: sperm samples
Settings: sperm from asthenospermic men, 50 μM, 24 h incubation; controls 19.1%, P<0.05

Compound: COC1=C(OC)C(=O)C(C/C=C(\C)CC/C=C(\C)CC/C=C(\C)CC/C=C(\C)CC/C=C(\C)CC/C=C(\C)CC/C=C(\C)CC/C=C(\C)CC/C=C(\C)CCC=C(C)C)=C(C)C1=O [Coenzyme Q10]
- motility rate: 35.7+1−19.5%
